About 910 (0.23%) of roughly 390,000 compounds were called active. This list was built around the results that the source calls inconclusive (neither active nor inactive); the mix of calls is not that of the screen. The call rests on the fitted dose curve; in most records, active means well fitted inhibition curve with a large enough effect; inconclusive means small, poorly fitted or top-dose-only effect; inactive means no such curve, though single readings can be large or run the other way. Potencies of inconclusive entries are doubtful fits and often do not repeat.
What follows are molecules tested against Ubiquitin carboxyl-terminal hydrolase 1 (Homo sapiens) (UniProt O94782) (assay: Inhibitors of USP1/UAF1: Primary Screen). Conditions: recombinant USP1/UAF1, Ub-Rhodamine cleavage fluorescence; series mostly up to 57.1 µM.
Summary of the method: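 USP1/UAF1 complex at 1 nM was preincubated with compound for 15 min at room temperature, then Ub-Rho substrate (150nM final) was added. Fluorescence (480/540 nm) was read kinetically, 6 reads every 60 seconds.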
Further: nearly all actives have a fitted effect of over 60% in size.
Potency means the concentration at half of the fitted maximal effect.

Amino acid sequences for entries named in this document (tags omitted). A change or cut given only in a name is not applied to a line headed by its entry.
UniProt O94782: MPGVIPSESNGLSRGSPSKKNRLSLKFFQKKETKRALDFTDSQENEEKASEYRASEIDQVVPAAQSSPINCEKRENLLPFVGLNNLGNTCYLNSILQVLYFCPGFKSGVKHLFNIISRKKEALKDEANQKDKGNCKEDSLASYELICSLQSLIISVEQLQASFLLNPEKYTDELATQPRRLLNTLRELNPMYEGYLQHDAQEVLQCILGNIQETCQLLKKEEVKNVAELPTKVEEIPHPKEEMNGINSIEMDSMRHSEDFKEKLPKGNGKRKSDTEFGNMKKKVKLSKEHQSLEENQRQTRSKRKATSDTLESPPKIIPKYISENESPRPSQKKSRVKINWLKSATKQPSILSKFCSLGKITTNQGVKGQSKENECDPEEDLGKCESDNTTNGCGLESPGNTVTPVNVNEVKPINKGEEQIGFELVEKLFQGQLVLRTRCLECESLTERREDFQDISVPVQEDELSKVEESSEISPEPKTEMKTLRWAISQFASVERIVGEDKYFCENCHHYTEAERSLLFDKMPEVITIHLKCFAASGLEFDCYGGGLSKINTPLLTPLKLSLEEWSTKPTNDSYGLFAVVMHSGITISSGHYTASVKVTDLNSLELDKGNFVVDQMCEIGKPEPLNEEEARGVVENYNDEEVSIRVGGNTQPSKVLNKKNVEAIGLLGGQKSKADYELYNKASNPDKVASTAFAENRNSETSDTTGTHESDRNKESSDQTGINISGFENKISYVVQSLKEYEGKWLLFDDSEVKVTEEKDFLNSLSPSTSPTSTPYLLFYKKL

Potency, inactive:
Cc1ccccc1C(=O)NNc1ncnc2c1cnn2-c1cccc(Cl)c1
CCC(=O)c1ccc(OCC(=O)OCC(=O)Nc2c(C)n(C)n(-c3ccccc3)c2=O)cc1
Cc1[nH]c2ccccc2c1CCN(Cc1cccnc1)C(=S)Nc1cccc(F)c1
OCCNc1nc(-c2ccccc2)nc2ccccc12
Cc1sc(NC(=O)CSc2nnnn2C2CCCCC2)c(C#N)c1C
Cc1cc(C(=O)CSc2nnc(-c3cccs3)o2)c(C)n1-c1ccccc1

Potency, inconclusive:
O=C(Nc1nc2ccccc2[nH]1)C1CCC1 10 µM [inhibitor, partial curve, poor fit]
CCOc1ccc(Nc2nc(C)c(NC(=O)c3cccc(F)c3)c(Nc3ccc(OCC)cc3)n2)cc1 31.6 µM [inhibitor, partial curve]
COc1cc(C(C)=O)ccc1Oc1cnccn1 5.01 µM [inhibitor, partial curve]
COc1ccc(-c2noc(-c3cc(-c4ccc(F)cc4)n[nH]3)n2)cc1 7.08 µM [inhibitor, partial curve, poor fit]
COC(=O)C1=C(C)N=C2SC(C#N)=C(N)N2C1c1ccc(OC)cc1 (stereo not drawn) 3.98 µM [inhibitor, partial curve]
CCOC(=O)N1CCN(c2ncc3c(n2)CC(c2ccc(Cl)cc2)CC3=O)CC1 (stereo not drawn) 25.1 µM [inhibitor, partial curve]
COc1ccc(C)cc1NC(=O)C1CCCN(S(=O)(=O)c2cccc3cccnc23)C1 (stereo not drawn) 7.08 µM [inhibitor, full curve, poor fit]
C=CCc1cccc2cc(C(=O)Nc3ccc(S(=O)(=O)Nc4nnc(CC)s4)cc3)c(=O)oc12 31.6 µM [inhibitor, single point]
CCCOc1ccc(-c2nc3ccc(Br)cc3c(=O)o2)cc1 4.47 µM [inhibitor, single point]
CN1C(=O)[C@@H]2[C@H](C1=O)[C@@H]1C(=O)Nc3ccccc3C(=O)N1[C@@H]2c1ccc(F)cc1 0.251 µM [inhibitor, full curve, poor fit]
CCCCN(CC)CCCNC(=O)c1cc2c(=O)oc3ccc(C)cc3c2s1 31.6 µM [inhibitor, partial curve, poor fit]
CCOc1cc(/C=C2/C(=N)N3OC(C)=CC3=NC2=O)ccc1OC 89.1 µM [inhibitor, partial curve, poor fit]

— PubChem BioAssay AID743255 (National Center for Advancing Translational Sciences (NCATS), 2014)
